In US20240180908A1, “TREATMENT OF KIDNEY DISEASES” (ACLIPSE ONE, INC., priority 2021, published 2024):
At least one structure is not confirmed: it was looked up by name or label, or the drawing left a doubt. Some entries repeat one wording, which the source may state once for all of them.

Test system: human podocyte cell line (CIHP-1)
Assay: PAN-injury podocyte viability assay (Cell Titer-Glo)
Type: cell-based
Conditions: 0.01 to 100 μM; for protection to PAN-injured podocytes: 3 days of PAN exposure; for improvement of podocyte viability: after 5 days of PAN injury
Source text: Cell Culture. The human podocyte cell line (CIHP-1) is a […] isolated from human kidney. Podocytes are highly specialized, terminally differentiated cells with a complex cellular structure. They are a critical component of glomerular filtration. Cell cycle control, growth arrest and differentiation are key to the in vivo biology of podocytes. The conditionally immortalized podocyte cell line allows an in vitro process of maturation analogous to the development and maturation of podocytes in vivo. […] These include the novel podocyte proteins nephrin, podocin, CD2AP and synaptopodin. This robust cell line is extensively characterized and validated.
The growth medium of CIHP-1 cells (Ximbio) was RPMI 1640 with 10% fetal bovine serum (FBS), 1-fold of ITS (insulin-transferrin-selenium), and 1-fold Pen/Strep. The culture condition was 33° C. with 5% CO2. The cell detachment solution was Accutase® for 5 min at 33° C. The cell line passage ration was 1:3 every 3 or 4 days.
PAN-injury podocyte viability assay. Differentiated podocytes were either pretreated with dimethyl sulfoxide (DMSO) as vehicle, lobeglitazone, pioglitazone, rosiglitazone, or dexamethasone followed by puromycin aminonucleoside (PAN) treatment (5 μg/ml). Viability assays were performed after 3 or 5 days of treatments. […] For compound treatment, compounds were diluted to 20, 2, 0.2, 0.02 and 0.002 mM with DMSO. A volume of 1.8 μL of compounds was taken to 358.2 μL of culture medium and mixed. Media from plates were aspirated. A volume of 100 μL compound-added medium was added to each plate. Plates were placed in the incubator for 4 hours.
On day 0, CIHP-1 cells were seeded into two 96-well white plates using 5000 cell/well for 3 days (plate 1) or 2500 cell/well for 5 days (plate 2) treatment.
For compound treatment on Day 1, culture medium was aspirated. For each cell plate, 100 μl/well fresh medium with compounds was added for 4 hour. DMSO was used as control. After compound treatment for 4 hours, PAN was added to a final concentration of 5 μg/ml. No PAN treatment was used for the negative control. There was no medium change for the whole process.
On Day 4, for the first plate, Cell Titer-Glo (CTG) assay was used by adding 60 μl of CTG reagent into each well of the first plate, incubating at room temperature with shaking for 20 min, and then reading by the EnVision plate reader.
On Day 6, for the second plate, CTG assay was used by adding 60 μl of CTG reagent into each well of the second plate, incubating at RT with shaking for 20 min, and then reading by the EnVision plate reader.

| SMILES | protection to PAN-injured podocytes | improvement of podocyte viability |
| --- | --- | --- |
| CCc1ccc(CCOc2ccc(CC3SC(=O)NC3=O)cc2)nc1 (stereo not drawn) [pioglitazone] | significant protection | did not show significant improvement |
| C[C@@H]1C[C@H]2[C@@H]3CCC4=CC(=O)C=C[C@]4(C)[C@@]3(F)[C@@H](O)C[C@]2(C)[C@@]1(O)C(=O)CO [dexamethasone] | did not show any protection | did not show significant improvement |
| CN(CCOc1ccc(CC2SC(=O)NC2=O)cc1)c1ccccn1 (stereo not drawn) [rosiglitazone] | did not show any protection | did not show significant improvement |
